Reference: US20240358735A1, “THERAPEUTIC COMPOSITIONS AND RELATED METHODS” (BOYCE THOMPSON INSTITUTE FOR PLANT RESEARCH, INC., priority 2021, published 2024)

Key:
Cbr-cest-2 mutants = experiment: Comparative metabolomics (HPLC-HRMS) of Cbr-cest-2 mutants versus wildtype C. briggsae (AF16); settings: relative to wildtype C. briggsae
C. elegans wildtype (N2) = experiment: Endo-metabolome of staged starved and fed cultures, targeted HPLC-HRMS; settings: 24 hr starvation, C. elegans wildtype larval stages and adults
Cel-cest-1.2 mutants = experiment: Comparative metabolomics (HPLC-HRMS) of Cel-cest-1.2 mutants versus wildtype C. elegans (N2); settings: abundance of the metabolite in Cel-cest-1.2 mutants compared to C. elegans wildtype (N2)

Q: `C[C@H](CCC(=O)O[C@H]1[C@H](Oc2ccc(CCN)cc2)O[C@H](CO)[C@@H](O)[C@@H]1OP(=O)(O)O)O[C@@H]1O[C@@H](C)[C@H](O)C[C@H]1O` [tyglas #9] was tested. Which “biosynthesis in Cbr-cest-2 mutants (in words)” value (Cbr-cest-2 mutants) did it give?
A: defective in the biosynthesis

Q: With `C/C=C(\C)C(=O)O[C@H]1[C@H](Oc2ccc(CCN)cc2)O[C@H](CO)[C@@H](O)[C@@H]1OP(=O)(O)O` [tyglu #701] as the compound, how does the “biosynthesis in Cbr-cest-2 mutants (in words)” value (Cbr-cest-2 mutants) read?
A: Cbr-cest-2-dependent

Q: `O=P(O)(O)O[C@@H]1[C@@H](O)[C@H](n2ccc3ccccc32)O[C@H](CO)[C@H]1O` [iglu #2] was tested. Which “abundance under starvation relative to fed conditions (in words)” value (C. elegans wildtype (N2)) did it give?
A: reduced during starvation

Q: For `CCC/C=C/C(=O)OCC1OC(OC(=O)c2cccnc2)C(OC(=O)c2cccnc2)C(OP(=O)(O)O)C1O` (centres unmarked) [nglu#7], which “Cel-cest-1.2 fold over WT (N2), average of 4 repeats” value (Cel-cest-1.2 mutants) is on record?
A: 0.008962

Q: `CCC/C=C/C(=O)OCC1OC(OC(=O)c2cccnc2)C(OC(=O)c2cccnc2)C(OP(=O)(O)O)C1O` (centres unmarked) [nglu#9] was tested. Which “Cel-cest-1.2 fold over WT (N2), average of 4 repeats” value (Cel-cest-1.2 mutants) did it give?
A: 0.001451
